# Reference: the supplement of paper PMC10849652
# Sequences of proteins named here, by UniProt entry; tags and fusion partners are left off. A change or cut given only in a name is not applied to a line headed by its entry.
# UniProt Q9UKA2: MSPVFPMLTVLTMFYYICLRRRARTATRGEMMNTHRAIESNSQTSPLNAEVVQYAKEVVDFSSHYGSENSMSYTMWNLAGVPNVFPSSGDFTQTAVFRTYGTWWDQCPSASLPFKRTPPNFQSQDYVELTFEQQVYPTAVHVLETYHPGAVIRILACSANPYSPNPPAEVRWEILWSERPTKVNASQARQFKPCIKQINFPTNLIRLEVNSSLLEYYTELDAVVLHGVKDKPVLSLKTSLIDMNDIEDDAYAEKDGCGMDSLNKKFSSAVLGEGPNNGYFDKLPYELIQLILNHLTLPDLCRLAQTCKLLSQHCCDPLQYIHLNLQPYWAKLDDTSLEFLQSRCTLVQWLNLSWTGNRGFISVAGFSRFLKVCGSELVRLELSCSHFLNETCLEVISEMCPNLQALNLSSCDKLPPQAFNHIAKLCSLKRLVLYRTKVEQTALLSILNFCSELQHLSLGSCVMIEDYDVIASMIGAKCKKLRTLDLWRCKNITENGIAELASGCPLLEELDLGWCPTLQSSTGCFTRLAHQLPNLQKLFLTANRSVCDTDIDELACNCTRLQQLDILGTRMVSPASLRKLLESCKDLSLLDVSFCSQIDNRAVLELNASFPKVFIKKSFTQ
# UniProt Q9BSK4: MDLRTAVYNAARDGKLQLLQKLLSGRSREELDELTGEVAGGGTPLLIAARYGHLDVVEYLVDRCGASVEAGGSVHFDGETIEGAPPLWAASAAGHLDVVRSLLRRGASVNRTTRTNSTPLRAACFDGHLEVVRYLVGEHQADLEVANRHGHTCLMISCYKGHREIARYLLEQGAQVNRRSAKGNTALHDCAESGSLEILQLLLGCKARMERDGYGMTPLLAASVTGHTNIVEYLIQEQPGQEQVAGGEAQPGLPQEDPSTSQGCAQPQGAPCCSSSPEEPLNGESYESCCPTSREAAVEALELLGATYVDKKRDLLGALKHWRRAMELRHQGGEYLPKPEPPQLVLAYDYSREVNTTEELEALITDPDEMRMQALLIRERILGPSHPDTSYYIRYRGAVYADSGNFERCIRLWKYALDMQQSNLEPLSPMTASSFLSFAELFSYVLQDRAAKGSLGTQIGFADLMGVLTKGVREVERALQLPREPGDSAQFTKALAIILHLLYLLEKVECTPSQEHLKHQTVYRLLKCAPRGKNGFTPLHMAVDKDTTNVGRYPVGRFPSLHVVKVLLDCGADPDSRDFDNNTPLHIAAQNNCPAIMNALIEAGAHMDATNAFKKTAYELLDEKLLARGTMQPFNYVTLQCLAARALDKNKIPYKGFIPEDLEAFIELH
# UniProt O94868: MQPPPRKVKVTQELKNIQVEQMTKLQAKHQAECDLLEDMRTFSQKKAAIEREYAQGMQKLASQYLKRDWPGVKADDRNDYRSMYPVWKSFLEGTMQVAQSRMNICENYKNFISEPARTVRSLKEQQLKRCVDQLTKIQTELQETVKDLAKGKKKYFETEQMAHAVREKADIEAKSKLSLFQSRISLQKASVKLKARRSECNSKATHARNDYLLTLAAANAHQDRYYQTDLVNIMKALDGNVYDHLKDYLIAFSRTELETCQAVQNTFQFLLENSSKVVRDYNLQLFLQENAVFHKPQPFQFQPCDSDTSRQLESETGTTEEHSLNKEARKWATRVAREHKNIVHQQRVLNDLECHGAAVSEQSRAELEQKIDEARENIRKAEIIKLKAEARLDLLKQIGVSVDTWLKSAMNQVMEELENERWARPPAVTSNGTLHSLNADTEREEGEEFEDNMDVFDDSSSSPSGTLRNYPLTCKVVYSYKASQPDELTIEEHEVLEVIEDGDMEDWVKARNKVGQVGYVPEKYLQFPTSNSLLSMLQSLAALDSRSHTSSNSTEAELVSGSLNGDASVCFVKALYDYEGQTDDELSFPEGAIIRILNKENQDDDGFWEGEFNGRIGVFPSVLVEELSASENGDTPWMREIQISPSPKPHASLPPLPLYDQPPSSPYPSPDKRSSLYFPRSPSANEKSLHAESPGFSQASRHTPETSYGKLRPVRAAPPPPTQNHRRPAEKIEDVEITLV
# UniProt Q13045: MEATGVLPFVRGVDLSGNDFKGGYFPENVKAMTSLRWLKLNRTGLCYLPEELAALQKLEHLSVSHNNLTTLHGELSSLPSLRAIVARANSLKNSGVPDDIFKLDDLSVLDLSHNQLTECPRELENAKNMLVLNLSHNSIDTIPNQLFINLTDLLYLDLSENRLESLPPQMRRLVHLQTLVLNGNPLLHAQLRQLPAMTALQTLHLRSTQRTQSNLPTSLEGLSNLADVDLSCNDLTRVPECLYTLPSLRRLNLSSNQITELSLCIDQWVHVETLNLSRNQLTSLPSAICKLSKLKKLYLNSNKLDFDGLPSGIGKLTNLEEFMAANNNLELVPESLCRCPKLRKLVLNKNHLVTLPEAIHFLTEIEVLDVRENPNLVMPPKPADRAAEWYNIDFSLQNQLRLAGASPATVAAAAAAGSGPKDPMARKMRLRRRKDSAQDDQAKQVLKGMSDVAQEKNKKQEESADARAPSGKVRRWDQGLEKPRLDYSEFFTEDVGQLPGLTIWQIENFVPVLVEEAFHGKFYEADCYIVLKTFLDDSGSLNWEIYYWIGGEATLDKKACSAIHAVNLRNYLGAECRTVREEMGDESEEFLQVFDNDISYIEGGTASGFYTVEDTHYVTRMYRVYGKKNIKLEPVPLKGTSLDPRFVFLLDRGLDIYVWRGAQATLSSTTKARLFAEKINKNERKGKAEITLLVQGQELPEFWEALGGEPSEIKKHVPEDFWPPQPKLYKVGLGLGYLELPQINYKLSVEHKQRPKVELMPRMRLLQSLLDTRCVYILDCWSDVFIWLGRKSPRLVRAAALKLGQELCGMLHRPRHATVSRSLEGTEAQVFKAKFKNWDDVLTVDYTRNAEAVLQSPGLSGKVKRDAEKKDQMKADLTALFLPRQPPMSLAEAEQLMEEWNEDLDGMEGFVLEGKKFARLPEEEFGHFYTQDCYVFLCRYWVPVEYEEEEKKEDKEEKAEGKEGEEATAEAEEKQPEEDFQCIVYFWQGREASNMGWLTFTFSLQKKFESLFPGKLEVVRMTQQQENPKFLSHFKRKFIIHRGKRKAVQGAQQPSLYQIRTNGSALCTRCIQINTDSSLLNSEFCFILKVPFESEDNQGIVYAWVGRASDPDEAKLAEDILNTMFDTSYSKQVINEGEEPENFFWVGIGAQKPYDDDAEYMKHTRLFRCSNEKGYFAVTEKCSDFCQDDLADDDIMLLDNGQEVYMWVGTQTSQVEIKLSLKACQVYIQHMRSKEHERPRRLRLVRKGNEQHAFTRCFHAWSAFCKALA
# UniProt Q9NVK5: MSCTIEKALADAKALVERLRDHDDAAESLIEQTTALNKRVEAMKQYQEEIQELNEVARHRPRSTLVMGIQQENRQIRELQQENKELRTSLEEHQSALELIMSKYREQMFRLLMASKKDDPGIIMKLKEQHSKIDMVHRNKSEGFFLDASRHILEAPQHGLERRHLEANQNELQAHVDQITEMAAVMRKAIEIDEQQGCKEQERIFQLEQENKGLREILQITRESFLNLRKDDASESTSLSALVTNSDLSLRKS
# UniProt Q53R41: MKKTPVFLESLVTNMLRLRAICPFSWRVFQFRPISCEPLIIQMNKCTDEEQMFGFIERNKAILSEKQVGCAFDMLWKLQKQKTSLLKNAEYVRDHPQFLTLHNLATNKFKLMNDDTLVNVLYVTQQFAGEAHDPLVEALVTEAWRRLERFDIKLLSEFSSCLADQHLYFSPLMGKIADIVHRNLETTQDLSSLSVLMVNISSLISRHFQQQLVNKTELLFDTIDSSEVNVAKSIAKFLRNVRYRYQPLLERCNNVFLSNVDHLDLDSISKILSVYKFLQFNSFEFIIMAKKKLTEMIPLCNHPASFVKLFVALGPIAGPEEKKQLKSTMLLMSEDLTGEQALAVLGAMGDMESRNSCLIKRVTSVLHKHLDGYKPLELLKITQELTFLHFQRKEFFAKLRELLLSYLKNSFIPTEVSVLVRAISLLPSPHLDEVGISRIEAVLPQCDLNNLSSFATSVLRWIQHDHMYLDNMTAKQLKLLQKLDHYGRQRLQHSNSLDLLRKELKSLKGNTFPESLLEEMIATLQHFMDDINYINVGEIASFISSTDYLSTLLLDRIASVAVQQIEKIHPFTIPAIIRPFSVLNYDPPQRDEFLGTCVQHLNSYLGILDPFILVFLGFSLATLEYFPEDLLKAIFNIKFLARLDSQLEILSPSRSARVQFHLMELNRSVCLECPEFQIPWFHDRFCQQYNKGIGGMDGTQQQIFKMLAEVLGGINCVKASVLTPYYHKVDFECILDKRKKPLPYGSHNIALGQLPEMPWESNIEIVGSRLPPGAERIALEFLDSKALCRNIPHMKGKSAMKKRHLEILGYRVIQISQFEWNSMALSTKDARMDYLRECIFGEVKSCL
# UniProt Q9UHY8: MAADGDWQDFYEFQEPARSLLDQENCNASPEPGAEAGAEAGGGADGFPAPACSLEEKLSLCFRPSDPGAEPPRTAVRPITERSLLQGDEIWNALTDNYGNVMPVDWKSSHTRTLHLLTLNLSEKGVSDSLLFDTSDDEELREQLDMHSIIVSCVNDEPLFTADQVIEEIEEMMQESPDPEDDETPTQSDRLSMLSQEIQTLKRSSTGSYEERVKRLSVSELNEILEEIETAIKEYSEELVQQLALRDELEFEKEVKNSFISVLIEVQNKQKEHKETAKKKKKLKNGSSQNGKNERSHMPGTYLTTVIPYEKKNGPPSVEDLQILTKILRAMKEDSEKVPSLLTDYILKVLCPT
# UniProt Q9Y2H6: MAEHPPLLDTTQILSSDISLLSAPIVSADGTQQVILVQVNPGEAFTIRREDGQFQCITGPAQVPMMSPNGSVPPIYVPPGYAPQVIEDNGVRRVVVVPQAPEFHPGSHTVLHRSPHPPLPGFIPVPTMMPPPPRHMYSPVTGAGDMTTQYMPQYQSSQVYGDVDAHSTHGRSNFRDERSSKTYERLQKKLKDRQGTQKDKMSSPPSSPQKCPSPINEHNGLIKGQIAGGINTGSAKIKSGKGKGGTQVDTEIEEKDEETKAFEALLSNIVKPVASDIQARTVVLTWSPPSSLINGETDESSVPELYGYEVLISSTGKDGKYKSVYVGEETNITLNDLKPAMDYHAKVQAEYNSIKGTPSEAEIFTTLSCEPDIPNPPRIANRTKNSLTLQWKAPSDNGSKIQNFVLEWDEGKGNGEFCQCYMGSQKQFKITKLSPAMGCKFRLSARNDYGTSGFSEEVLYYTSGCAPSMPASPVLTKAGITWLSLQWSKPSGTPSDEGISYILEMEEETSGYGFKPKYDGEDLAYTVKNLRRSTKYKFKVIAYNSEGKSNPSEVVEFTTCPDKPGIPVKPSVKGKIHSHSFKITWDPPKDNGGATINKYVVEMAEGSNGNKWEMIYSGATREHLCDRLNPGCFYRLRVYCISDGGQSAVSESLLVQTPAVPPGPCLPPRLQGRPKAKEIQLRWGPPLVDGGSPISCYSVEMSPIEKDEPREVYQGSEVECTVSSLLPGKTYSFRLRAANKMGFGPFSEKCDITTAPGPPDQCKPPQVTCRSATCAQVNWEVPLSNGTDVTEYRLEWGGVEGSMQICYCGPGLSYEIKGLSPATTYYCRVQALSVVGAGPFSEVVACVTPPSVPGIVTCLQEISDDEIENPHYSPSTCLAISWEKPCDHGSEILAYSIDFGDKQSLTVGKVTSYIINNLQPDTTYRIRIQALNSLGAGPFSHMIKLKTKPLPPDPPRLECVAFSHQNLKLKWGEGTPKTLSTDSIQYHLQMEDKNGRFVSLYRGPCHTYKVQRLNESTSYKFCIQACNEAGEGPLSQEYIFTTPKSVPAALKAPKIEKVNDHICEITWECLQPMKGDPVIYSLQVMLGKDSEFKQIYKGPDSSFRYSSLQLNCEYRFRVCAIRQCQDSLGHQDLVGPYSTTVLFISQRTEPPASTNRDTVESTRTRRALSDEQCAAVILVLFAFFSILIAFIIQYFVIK
# UniProt Q8N0W7: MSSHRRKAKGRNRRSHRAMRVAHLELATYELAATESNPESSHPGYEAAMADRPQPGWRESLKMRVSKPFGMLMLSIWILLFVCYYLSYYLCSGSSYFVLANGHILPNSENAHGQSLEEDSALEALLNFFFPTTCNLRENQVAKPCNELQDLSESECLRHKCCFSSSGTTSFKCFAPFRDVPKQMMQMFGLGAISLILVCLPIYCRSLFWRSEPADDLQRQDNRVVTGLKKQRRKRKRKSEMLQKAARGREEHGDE
# UniProt P01100, whole entry, looked up: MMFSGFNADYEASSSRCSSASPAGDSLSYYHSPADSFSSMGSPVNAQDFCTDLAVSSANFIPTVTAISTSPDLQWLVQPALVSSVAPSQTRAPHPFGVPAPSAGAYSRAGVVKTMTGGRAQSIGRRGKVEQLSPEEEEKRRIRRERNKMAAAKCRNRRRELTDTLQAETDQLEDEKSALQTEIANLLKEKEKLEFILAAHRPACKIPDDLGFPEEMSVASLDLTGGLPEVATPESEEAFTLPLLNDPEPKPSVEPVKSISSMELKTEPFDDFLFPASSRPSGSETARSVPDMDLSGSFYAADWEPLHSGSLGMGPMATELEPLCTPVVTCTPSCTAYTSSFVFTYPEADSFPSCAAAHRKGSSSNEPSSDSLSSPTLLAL
# The other results are listed elsewhere or left out.
# Tests used:
# Experiment in all cases: log2 fold change, soluble protein after heating vs DMSO (PISA); higher = thermal stabilisation; K562 lysate, 10 uM; active = over 0.2 and 3.5 SD of the protein, either way, in both replicates (recomputed)
# tozasertib = compound: Cc1cc(Nc2cc(N3CCN(C)CC3)nc(Sc3ccc(NC(=O)C4CC4)cc3)n2)n[nH]1 [tozasertib]
# In short: (§1)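 K562 pellets were dounce-homogenised in PBS pH 7.4 with 1 mM MgCl2, and the crude extract at 1 mg/mL protein was treated with 10 μM compound for 30 min. Aliquots were heated for 3 min across 48°C-58°C, pooled, and brought to 0.5% NP-40 at 4°C; soluble protein was the supernatant after 21,000xg for 90 min. Soluble protein was quantified by TMTpro 16plex LC-MS/MS with channel sums equalised, and reported as log2 fold change in thermal stability against DMSO controls, with values from duplicates.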
# nilotinib = compound: Cc1cn(-c2cc(NC(=O)c3ccc(C)c(Nc4nccc(-c5cccnc5)n4)c3)cc(C(F)(F)F)c2)cn1 [nilotinib]
# In short: as §1
# [1] = compound: Cc1nc(Nc2n[nH]c3c2CN(C(=O)N[C@H](CN(C)C)c2ccccc2)C3(C)C)c2sccc2n1
# In short: as §1
# [2] = compound: Cc1ncc(-c2ccnc(Nc3ccc(S(C)(=O)=O)cc3)n2)n1C(C)C
# In short: as §1
# tipifarnib = compound: Cn1cncc1[C@@](N)(c1ccc(Cl)cc1)c1ccc2c(c1)c(-c1cccc(Cl)c1)cc(=O)n2C [tipifarnib]
# In short: as §1
# [3] = compound: NC1(c2ccc(-c3nc4ccn5c(=O)[nH]nc5c4cc3-c3ccccc3)cc2)CCC1
# In short: as §1
# crizotinib = compound: C[C@@H](Oc1cc(-c2cnn(C3CCNCC3)c2)cnc1N)c1c(Cl)ccc(F)c1Cl [crizotinib]
# In short: as §1
# doramapimod = compound: Cc1ccc(-n2nc(C(C)(C)C)cc2NC(=O)Nc2ccc(OCCN3CCOCC3)c3ccccc23)cc1 [doramapimod]
# In short: as §1
# quisinostat = compound: Cn1cc(CNCC2CCN(c3ncc(C(=O)NO)cn3)CC2)c2ccccc21 [quisinostat]
# In short: as §1
# [4] = compound: NC(=O)Nc1cc(-c2cccc(F)c2)sc1C(=O)N[C@H]1CCCNC1
# In short: as §1
# pictilisib = compound: CS(=O)(=O)N1CCN(Cc2cc3nc(-c4cccc5[nH]ncc45)nc(N4CCOCC4)c3s2)CC1 [pictilisib]
# In short: as §1
# [5] = compound: C[C@H](C1=CC=C(C=C1)C(=O)NC2=C3C=CNC3=NC=C2)N
# In short: as §1
# duvelisib = compound: C[C@H](Nc1ncnc2nc[nH]c12)c1cc2cccc(Cl)c2c(=O)n1-c1ccccc1 [duvelisib]
# In short: as §1
# gandotinib = compound: Cc1cc(Nc2cc(CN3CCOCC3)c3nc(C)c(Cc4ccc(Cl)cc4F)n3n2)n[nH]1 [gandotinib]
# In short: as §1
# bafetinib = compound: Cc1ccc(NC(=O)c2ccc(CN3CC[C@H](N(C)C)C3)c(C(F)(F)F)c2)cc1Nc1nccc(-c2cncnc2)n1 [bafetinib]
# In short: as §1
# [6] = compound: Cc1cccc(CC(=O)N2CCc3c2ccc(-c2cn(C)c4ncnc(N)c24)c3F)n1
# In short: as §1
# dasatinib = compound: Cc1nc(Nc2ncc(C(=O)Nc3c(C)cccc3Cl)s2)cc(N2CCN(CCO)CC2)n1 [dasatinib]
# In short: as §1
# [7] = compound: Cn1cc(-c2ccc3c(c2)CCN3C(=O)Cc2cccc(C(F)(F)F)c2)c2c(N)ncnc21
# In short: as §1
# lapatinib = compound: CS(=O)(=O)CCNCc1ccc(-c2ccc3ncnc(Nc4ccc(OCc5cccc(F)c5)c(Cl)c4)c3c2)o1 [lapatinib]
# In short: as §1
# [8] = compound: NC(=O)c1cnc(N[C@@H]2CCCC[C@@H]2N)nc1Nc1cccc(-n2nccn2)c1
# In short: as §1
target,measurement,setting,value
FBXL4 (UniProt Q9UKA2),log2 fold change,tozasertib,inactive: -0.032
same,log2 fold change,nilotinib,inactive: 0.005
same,log2 fold change,[1],inactive: 0.185
same,log2 fold change,[2],inactive: 0.049
same,log2 fold change,tipifarnib,inactive: 0.019
same,log2 fold change,[3],inactive: 0.097
FCGR2B (UniProt P31994),log2 fold change,crizotinib,inactive: -0.012
same,log2 fold change,tozasertib,inactive: 0.276
same,log2 fold change,doramapimod,inactive: 0.052
same,log2 fold change,quisinostat,inactive: -0.057
same,log2 fold change,[4],inactive: 0.18
"FBRSL1, A0A3B3IRR3",log2 fold change,pictilisib,inactive: -0.064
same,log2 fold change,crizotinib,inactive: 0.086
same,log2 fold change,[5],inactive: -0.114
same,log2 fold change,duvelisib,inactive: 0.035
same,log2 fold change,gandotinib,inactive: 0.032
same,log2 fold change,tozasertib,inactive: -0.105
same,log2 fold change,doramapimod,inactive: -0.161
same,log2 fold change,bafetinib,inactive: -0.089
same,log2 fold change,[6],inactive: 0.146
same,log2 fold change,nilotinib,inactive: 0.034
same,log2 fold change,[1],inactive: 0.022
same,log2 fold change,dasatinib,inactive: 0.01
same,log2 fold change,[2],inactive: 0.013
same,log2 fold change,[7],inactive: -0.042
same,log2 fold change,quisinostat,inactive: 0.031
same,log2 fold change,tipifarnib,inactive: -0.073
same,log2 fold change,[4],inactive: 0.029
same,log2 fold change,[3],inactive: 0.066
"FDPS, A0A087WVN4",log2 fold change,lapatinib,inactive: -0.207
same,log2 fold change,[8],inactive: 0.023
FEM1A (UniProt Q9BSK4),log2 fold change,lapatinib,inactive: -0.098
same,log2 fold change,tozasertib,inactive: 0.274
same,log2 fold change,nilotinib,inactive: -0.218
same,log2 fold change,[1],inactive: -0.141
same,log2 fold change,[2],inactive: 0.058
same,log2 fold change,tipifarnib,inactive: 0.019
same,log2 fold change,[8],inactive: -0.058
same,log2 fold change,[3],inactive: 0.044
FCHSD2 (UniProt O94868),log2 fold change,lapatinib,inactive: -0.024
same,log2 fold change,duvelisib,inactive: 0.029
same,log2 fold change,nilotinib,inactive: 0.006
same,log2 fold change,[1],inactive: 0.048
same,log2 fold change,dasatinib,inactive: -0.083
same,log2 fold change,[2],inactive: 0.075
same,log2 fold change,[7],inactive: -0.038
same,log2 fold change,tipifarnib,inactive: -0.066
same,log2 fold change,[8],inactive: -0.119
FLNA (UniProt H0Y5C6),log2 fold change,lapatinib,inactive: 0.127
same,log2 fold change,duvelisib,inactive: -0.08
same,log2 fold change,dasatinib,inactive: 0.212
same,log2 fold change,[7],inactive: 0.069
same,log2 fold change,[8],inactive: 0.11
same,log2 fold change,[3],inactive: -0.005
FBXL19 (UniProt Q6PCT2),log2 fold change,crizotinib,inactive: 0.097
same,log2 fold change,doramapimod,inactive: 0.195
same,log2 fold change,quisinostat,inactive: -0.027
same,log2 fold change,[4],inactive: 0.118
same,log2 fold change,[3],inactive: 0.13
FANCA (UniProt O15360),log2 fold change,crizotinib,inactive: -0.137
same,log2 fold change,duvelisib,inactive: 0.104
same,log2 fold change,tozasertib,inactive: 0.037
same,log2 fold change,doramapimod,inactive: -0.194
same,log2 fold change,dasatinib,inactive: -0.168
same,log2 fold change,[7],inactive: -0.038
same,log2 fold change,quisinostat,inactive: -0.047
same,log2 fold change,[4],inactive: -0.042
FHL1 isoform 4 (UniProt Q13642),log2 fold change,[5],inactive: 0.423
same,log2 fold change,gandotinib,inactive: -0.172
same,log2 fold change,[6],inactive: -0.09
FARP2 (UniProt H7C3M7),log2 fold change,crizotinib,inactive: -0.079
same,log2 fold change,[5],inactive: -0.099
same,log2 fold change,duvelisib,inactive: -0.076
same,log2 fold change,gandotinib,inactive: 0.051
same,log2 fold change,tozasertib,inactive: -0.09
same,log2 fold change,doramapimod,inactive: 0.171
same,log2 fold change,[6],inactive: 0.105
same,log2 fold change,nilotinib,inactive: 0.05
same,log2 fold change,[1],inactive: -0.08
same,log2 fold change,dasatinib,inactive: -0.037
same,log2 fold change,[2],inactive: 0.031
same,log2 fold change,[7],inactive: 0.089
same,log2 fold change,quisinostat,inactive: -0.086
same,log2 fold change,tipifarnib,inactive: -0.201
same,log2 fold change,[4],inactive: -0.055
same,log2 fold change,[3],inactive: -0.047
"FASN, A0A0U1RRG3",log2 fold change,lapatinib,inactive: -0.444
same,log2 fold change,[8],inactive: 0.06
FBRS (UniProt J3KNZ9),log2 fold change,pictilisib,inactive: -0.07
same,log2 fold change,crizotinib,inactive: -0.05
same,log2 fold change,[5],inactive: 0.02
same,log2 fold change,duvelisib,inactive: -0.043
same,log2 fold change,gandotinib,inactive: -0.057
same,log2 fold change,tozasertib,inactive: 0.087
same,log2 fold change,doramapimod,inactive: -0.044
same,log2 fold change,bafetinib,inactive: 0.123
same,log2 fold change,[6],inactive: 0.008
same,log2 fold change,nilotinib,inactive: -0.047
same,log2 fold change,[1],inactive: 0.032
same,log2 fold change,dasatinib,inactive: -0.024
same,log2 fold change,[2],inactive: -0.091
same,log2 fold change,[7],inactive: 0.081
same,log2 fold change,quisinostat,inactive: -0.078
same,log2 fold change,tipifarnib,inactive: -0.049
same,log2 fold change,[4],inactive: 0.097
same,log2 fold change,[3],inactive: 0.025
FANCF (UniProt Q9NPI8),log2 fold change,crizotinib,inactive: -0.076
same,log2 fold change,[5],inactive: 0.226
same,log2 fold change,gandotinib,inactive: -0.543
same,log2 fold change,doramapimod,inactive: 0.097
same,log2 fold change,[6],inactive: -0.367
same,log2 fold change,quisinostat,inactive: -0.013
same,log2 fold change,[4],inactive: 0.3
FEM1C (UniProt Q96JP0),log2 fold change,duvelisib,inactive: 0.059
same,log2 fold change,dasatinib,inactive: -0.162
same,log2 fold change,[7],inactive: 0.016
FLII isoform 2 (UniProt Q13045),log2 fold change,lapatinib,inactive: -0.056
same,log2 fold change,tozasertib,inactive: 0.008
same,log2 fold change,[8],inactive: 0.022
FBH1 isoform 2 (UniProt Q8NFZ0),log2 fold change,pictilisib,inactive: 0.02
same,log2 fold change,crizotinib,inactive: 0.051
same,log2 fold change,[5],inactive: 0.174
same,log2 fold change,gandotinib,inactive: -0.059
same,log2 fold change,doramapimod,inactive: 0.049
same,log2 fold change,bafetinib,inactive: 0.016
same,log2 fold change,[6],inactive: -0.049
same,log2 fold change,nilotinib,inactive: 0.249
same,log2 fold change,[1],inactive: -0.049
same,log2 fold change,[2],inactive: 0.014
same,log2 fold change,quisinostat,inactive: -0.136
same,log2 fold change,tipifarnib,inactive: -0.153
same,log2 fold change,[4],inactive: -0.005
FGFR1OP2 isoform 2 (UniProt Q9NVK5),log2 fold change,crizotinib,inactive: -0.006
same,log2 fold change,[5],inactive: 0.148
same,log2 fold change,gandotinib,inactive: -0.017
same,log2 fold change,doramapimod,inactive: -0.155
same,log2 fold change,[6],inactive: -0.187
same,log2 fold change,quisinostat,inactive: 0.101
same,log2 fold change,[4],inactive: -0.06
FASTKD1 (UniProt Q53R41),log2 fold change,crizotinib,inactive: -0.226
same,log2 fold change,[5],inactive: -0.028
same,log2 fold change,duvelisib,inactive: 0.026
same,log2 fold change,gandotinib,inactive: 0.014
same,log2 fold change,tozasertib,inactive: -0.011
same,log2 fold change,doramapimod,inactive: -0.061
same,log2 fold change,[6],inactive: 0.065
same,log2 fold change,nilotinib,inactive: -0.08
same,log2 fold change,[1],inactive: 0.06
same,log2 fold change,dasatinib,inactive: -0.035
same,log2 fold change,[2],inactive: 0.016
same,log2 fold change,[7],inactive: 0.031
same,log2 fold change,quisinostat,inactive: -0.166
same,log2 fold change,tipifarnib,inactive: -0.044
same,log2 fold change,[4],inactive: 0.018
same,log2 fold change,[3],inactive: 0.011
FASTKD3 (UniProt Q14CZ7),log2 fold change,lapatinib,inactive: 0.182
same,log2 fold change,tozasertib,inactive: -0.144
same,log2 fold change,nilotinib,inactive: -0.155
same,log2 fold change,[1],inactive: -0.047
same,log2 fold change,[2],inactive: -0.067
same,log2 fold change,tipifarnib,inactive: -0.128
same,log2 fold change,[8],inactive: -0.011
FCF1 (UniProt Q9Y324),log2 fold change,crizotinib,inactive: -0.195
same,log2 fold change,[5],inactive: -0.109
same,log2 fold change,duvelisib,inactive: 0.051
same,log2 fold change,gandotinib,inactive: -0.007
same,log2 fold change,doramapimod,inactive: 0.008
same,log2 fold change,[6],inactive: -0.073
same,log2 fold change,nilotinib,inactive: -0.275
same,log2 fold change,[1],inactive: -0.001
same,log2 fold change,dasatinib,inactive: 0.01
same,log2 fold change,[2],inactive: 0.078
same,log2 fold change,[7],inactive: 0.113
same,log2 fold change,quisinostat,inactive: 0.157
same,log2 fold change,tipifarnib,inactive: 0.1
same,log2 fold change,[4],inactive: -0.233
FEZ2 (UniProt Q9UHY8),log2 fold change,[5],inactive: -0.039
same,log2 fold change,gandotinib,inactive: -0.048
same,log2 fold change,[6],inactive: 0.062
FNDC3A (UniProt Q9Y2H6),log2 fold change,crizotinib,inactive: 0.036
same,log2 fold change,[5],active: -0.808
same,log2 fold change,gandotinib,inactive: 0.42
same,log2 fold change,doramapimod,inactive: 0.143
same,log2 fold change,[6],inactive: 0.126
same,log2 fold change,nilotinib,inactive: -0.057
same,log2 fold change,[1],inactive: -0.125
same,log2 fold change,[2],inactive: -0.293
same,log2 fold change,quisinostat,inactive: -0.247
same,log2 fold change,tipifarnib,inactive: -0.064
same,log2 fold change,[4],inactive: 0.059
same,log2 fold change,[3],inactive: -0.03
FMR1NB (UniProt Q8N0W7),log2 fold change,crizotinib,inactive: 0.047
same,log2 fold change,doramapimod,inactive: -0.141
same,log2 fold change,quisinostat,inactive: -0.352
same,log2 fold change,[4],inactive: 0.106
FOS (UniProt P01100),log2 fold change,[5],inactive: -0.511
same,log2 fold change,gandotinib,inactive: 0.009
same,log2 fold change,tozasertib,inactive: 0.219
same,log2 fold change,[6],inactive: -0.246
FKBP10 (UniProt Q96AY3),log2 fold change,[5],inactive: 0.083
same,log2 fold change,duvelisib,inactive: 0.406
same,log2 fold change,gandotinib,inactive: -0.244
same,log2 fold change,tozasertib,inactive: 0.037
same,log2 fold change,[6],inactive: -0.011
same,log2 fold change,nilotinib,inactive: -0.035
same,log2 fold change,[1],inactive: 0.205
same,log2 fold change,dasatinib,inactive: -0.072
same,log2 fold change,[2],inactive: -0.048
same,log2 fold change,[7],inactive: -0.049
same,log2 fold change,tipifarnib,inactive: -0.023

# Rewritten with tabs: part of the list above.
target	measurement	setting	value
FKBP10 (UniProt Q96AY3)	log2 fold change	[5]	inactive: 0.083
same	log2 fold change	duvelisib	inactive: 0.406
same	log2 fold change	gandotinib	inactive: -0.244

# Fetched one by one from above, 5 records:
target,measurement,setting,value
FCF1 (UniProt Q9Y324),log2 fold change,[5],inactive: -0.109
FBXL4 (UniProt Q9UKA2),log2 fold change,tozasertib,inactive: -0.032
FANCF (UniProt Q9NPI8),log2 fold change,doramapimod,inactive: 0.097
FBRS (UniProt J3KNZ9),log2 fold change,[4],inactive: 0.097
same,log2 fold change,tozasertib,inactive: 0.087
